Data as given in paper PMC7495824.
No constants are given. Whether binding was seen depends on the method and setting. In cells and extracts the contact can be indirect. Some entries that bind do so weakly or less than the wild type. For part of these data: Sequences can lack the tags named with a protein.

Chains of the proteins cited; added tags and fusions are not shown.
UniProt P97801: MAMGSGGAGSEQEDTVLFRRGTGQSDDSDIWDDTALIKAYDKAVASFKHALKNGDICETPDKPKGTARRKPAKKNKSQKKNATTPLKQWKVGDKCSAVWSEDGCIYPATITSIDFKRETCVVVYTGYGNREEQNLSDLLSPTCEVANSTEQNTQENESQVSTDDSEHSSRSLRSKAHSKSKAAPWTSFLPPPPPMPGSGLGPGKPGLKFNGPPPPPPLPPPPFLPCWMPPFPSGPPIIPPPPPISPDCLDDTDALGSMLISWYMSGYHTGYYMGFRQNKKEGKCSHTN
UniProt Q16637: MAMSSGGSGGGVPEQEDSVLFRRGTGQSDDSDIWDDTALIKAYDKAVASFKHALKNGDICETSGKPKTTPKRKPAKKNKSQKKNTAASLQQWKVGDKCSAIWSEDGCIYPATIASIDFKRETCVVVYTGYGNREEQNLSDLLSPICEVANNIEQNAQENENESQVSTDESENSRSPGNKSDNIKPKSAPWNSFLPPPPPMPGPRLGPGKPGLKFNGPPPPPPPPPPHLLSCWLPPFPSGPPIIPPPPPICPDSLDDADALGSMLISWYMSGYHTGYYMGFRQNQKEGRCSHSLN

T1: GFP-tagged human hnRNP F (human) (UniProt P52597)
T1 sequence: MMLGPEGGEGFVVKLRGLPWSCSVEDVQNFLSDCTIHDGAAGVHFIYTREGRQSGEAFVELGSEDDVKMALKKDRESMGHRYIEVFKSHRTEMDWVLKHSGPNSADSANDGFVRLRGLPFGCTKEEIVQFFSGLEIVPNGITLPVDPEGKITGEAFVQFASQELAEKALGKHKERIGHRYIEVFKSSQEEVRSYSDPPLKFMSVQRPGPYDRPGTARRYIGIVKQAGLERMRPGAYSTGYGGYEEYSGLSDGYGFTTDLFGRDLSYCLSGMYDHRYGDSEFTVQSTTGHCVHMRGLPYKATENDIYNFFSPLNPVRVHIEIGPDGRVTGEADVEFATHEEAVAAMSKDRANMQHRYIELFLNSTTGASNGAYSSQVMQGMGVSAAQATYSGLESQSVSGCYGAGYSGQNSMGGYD

T2: GFP-tagged human hnRNP H2 (human) (UniProt P55795)
T2 sequence: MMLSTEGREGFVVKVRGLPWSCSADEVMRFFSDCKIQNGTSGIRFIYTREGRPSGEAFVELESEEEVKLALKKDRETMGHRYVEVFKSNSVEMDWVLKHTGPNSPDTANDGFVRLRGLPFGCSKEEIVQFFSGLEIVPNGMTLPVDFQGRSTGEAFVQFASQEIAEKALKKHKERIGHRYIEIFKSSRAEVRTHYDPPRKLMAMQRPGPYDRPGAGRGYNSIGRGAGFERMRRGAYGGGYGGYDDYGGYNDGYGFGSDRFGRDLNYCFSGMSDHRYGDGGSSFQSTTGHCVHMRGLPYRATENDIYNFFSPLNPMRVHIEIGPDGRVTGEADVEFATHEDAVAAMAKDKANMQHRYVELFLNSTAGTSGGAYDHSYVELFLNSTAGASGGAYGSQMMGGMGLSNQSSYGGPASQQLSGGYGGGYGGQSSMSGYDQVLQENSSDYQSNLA

T3: endogenous mouse Plastin 3 (mouse (endogenous in mouse brain)) (UniProt Q99K51)
T3 sequence: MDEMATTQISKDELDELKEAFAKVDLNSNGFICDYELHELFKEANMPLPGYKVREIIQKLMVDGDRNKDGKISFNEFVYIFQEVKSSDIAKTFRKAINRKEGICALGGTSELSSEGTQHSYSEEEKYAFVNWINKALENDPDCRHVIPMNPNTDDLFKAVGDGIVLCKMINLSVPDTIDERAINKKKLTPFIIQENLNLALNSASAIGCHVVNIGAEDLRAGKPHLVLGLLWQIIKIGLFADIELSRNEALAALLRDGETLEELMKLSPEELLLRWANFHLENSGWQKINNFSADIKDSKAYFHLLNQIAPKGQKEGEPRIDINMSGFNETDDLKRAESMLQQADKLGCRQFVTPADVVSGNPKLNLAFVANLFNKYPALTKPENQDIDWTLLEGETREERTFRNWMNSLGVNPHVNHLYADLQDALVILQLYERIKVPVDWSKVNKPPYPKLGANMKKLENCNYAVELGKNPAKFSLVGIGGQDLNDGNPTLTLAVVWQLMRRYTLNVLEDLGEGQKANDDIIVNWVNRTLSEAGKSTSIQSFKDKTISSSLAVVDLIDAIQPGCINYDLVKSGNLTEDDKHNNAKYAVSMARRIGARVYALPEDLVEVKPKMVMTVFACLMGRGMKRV


How the values were obtained:
[1] = molecular target: T1, GFP-tagged human hnRNP F (human); assay: co-IP; GFP MicroBeads (Miltenyi) IP of GFP-tagged hnRNP F or hnRNP H1/2 from lysate of co-transfected HEK293T cells; IP lysis buffer 100 mM NaCl, 50 mM Tris, 5 mM EGTA, 1% CHAPS, pH 7.5; 2 h at 4 °C; Western blot; also with 100 μg/ml RNase A in the lysis buffer (associations maintained)
[2] = molecular target: T2, GFP-tagged human hnRNP H2 (human); assay: as above
[3] = molecular target: endogenous mouse SMN (mouse (endogenous in mouse brain)) (UniProt P97801); assay: co-IP; endogenous proteins from whole adult mouse brain lysate (RIPA buffer); 750 μg lysate with 2 μg antibody against SMN or against PLS3, protein G beads, 4 °C; Western blot
[4] = molecular target: T3, endogenous mouse Plastin 3 (mouse (endogenous in mouse brain)); assay: as above

binding [1]	binding [2]	binding [3]	binding [4]	Molecule
binds	binds			V5-tagged human SMN (from UniProt Q16637 1-294)
binds	binds			Flag-tagged human Plastin 3 (protein, UniProt P13797 1-630) MDEMATTQISKDELDELKEAFAKVDLNSNGFICDYELHELFKEANMPLPGYKVREIIQKLMLDGDRNKDGKISFDEFVYIFQEVKSSDIAKTFRKAINRKEGICALGGTSELSSEGTQHSYSEEEKYAFVNWINKALENDPDCRHVIPMNPNTDDLFKAVGDGIVLCKMINLSVPDTIDERAINKKKLTPFIIQENLNLALNSASAIGCHVVNIGAEDLRAGKPHLVLGLLWQIIKIGLFADIELSRNEALAALLRDGETLEELMKLSPEELLLRWANFHLENSGWQKINNFSADIKDSKAYFHLLNQIAPKGQKEGEPRIDINMSGFNETDDLKRAESMLQQADKLGCRQFVTPADVVSGNPKLNLAFVANLFNKYPALTKPENQDIDWTLLEGETREERTFRNWMNSLGVNPHVNHLYADLQDALVILQLYERIKVPVDWSKVNKPPYPKLGANMKKLENCNYAVELGKHPAKFSLVGIGGQDLNDGNQTLTLALVWQLMRRYTLNVLEDLGDGQKANDDIIVNWVNRTLSEAGKSTSIQSFKDKTISSSLAVVDLIDAIQPGCINYDLVKSGNLTEDDKHNNAKYAVSMARRIGARVYALPEDLVEVKPKMVMTVFACLMGRGMKRV
		binds	binds	endogenous mouse hnRNP F (protein, UniProt Q9Z2X1 1-415) MMLGPEGGEGYVVKLRGLPWSCSIEDVQNFLSDCTIHDGVAGVHFIYTREGRQSGEAFVELESEDDVKLALKKDRESMGHRYIEVFKSHRTEMDWVLKHSGPNSADSANDGFVRLRGLPFGCTKEEIVQFFSGLEIVPNGITLPVDPEGKITGEAFVQFASQELAEKALGKHKERIGHRYIEVFKSSQEEVRSYSDPPLKFMSVQRPGPYDRPGTARRYIGIVKQAGLDRMRSGAYSAGYGGYEEYSGLSDGYGFTTDLFGRDLSYCLSGMYDHRYGDSEFTVQSTTGHCVHMRGLPYKATENDIYNFFSPLNPVRVHIEIGPDGRVTGEADVEFATHEEAVAAMSKDRANMQHRYIELFLNSTTGASNGAYSSQVMQGMGVSAAQATYSGLESQSVSGCYGAGYSGQNSMGGYD
